Assay results published in paper doi:10.1101/2020.07.04.184861.
These are yes or no findings as the source states them, for the method shown. In cells and extracts the contact can be indirect. Here binding means that the protein was enriched with, or labelled near, the bait; the list need not be complete. For some of these results: No binding means not detected with the bait. For some of these results: Sequences can lack the tags named with a protein.

Chains of the proteins cited; added tags and fusions are not shown.
UniProt Q9H814: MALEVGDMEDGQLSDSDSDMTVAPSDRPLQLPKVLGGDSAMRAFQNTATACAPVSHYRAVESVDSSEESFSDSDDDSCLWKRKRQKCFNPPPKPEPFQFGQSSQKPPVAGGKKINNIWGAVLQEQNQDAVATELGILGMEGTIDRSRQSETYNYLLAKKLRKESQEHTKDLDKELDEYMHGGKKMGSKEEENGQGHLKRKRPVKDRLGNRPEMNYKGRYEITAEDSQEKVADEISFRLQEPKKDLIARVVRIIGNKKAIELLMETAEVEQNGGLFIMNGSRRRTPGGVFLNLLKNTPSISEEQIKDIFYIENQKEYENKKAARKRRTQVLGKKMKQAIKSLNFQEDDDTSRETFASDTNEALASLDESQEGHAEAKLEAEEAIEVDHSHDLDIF
UniProt Q6NZY4: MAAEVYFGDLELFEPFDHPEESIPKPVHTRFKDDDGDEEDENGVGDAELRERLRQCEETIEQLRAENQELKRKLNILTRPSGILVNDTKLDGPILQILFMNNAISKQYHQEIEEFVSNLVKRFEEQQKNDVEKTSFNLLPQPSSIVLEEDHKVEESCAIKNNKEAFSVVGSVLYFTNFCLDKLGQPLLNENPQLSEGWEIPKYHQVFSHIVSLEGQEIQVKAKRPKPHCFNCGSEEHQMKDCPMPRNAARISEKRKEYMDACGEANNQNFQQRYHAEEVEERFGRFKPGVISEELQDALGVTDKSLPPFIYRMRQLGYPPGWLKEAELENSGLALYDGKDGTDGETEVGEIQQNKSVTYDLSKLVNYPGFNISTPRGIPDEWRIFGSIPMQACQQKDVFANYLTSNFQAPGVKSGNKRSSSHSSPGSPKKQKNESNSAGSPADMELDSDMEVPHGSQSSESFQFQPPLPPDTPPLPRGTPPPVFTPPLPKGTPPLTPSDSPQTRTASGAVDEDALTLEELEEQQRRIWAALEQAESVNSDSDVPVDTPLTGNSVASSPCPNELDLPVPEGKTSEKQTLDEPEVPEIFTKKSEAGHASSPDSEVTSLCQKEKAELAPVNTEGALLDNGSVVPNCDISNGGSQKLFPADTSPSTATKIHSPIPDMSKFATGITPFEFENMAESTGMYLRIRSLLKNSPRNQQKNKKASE

What was measured:
Assay in all cases: affinity purification with mass spectrometry
[1] = molecular target: T1, LAP-tagged NCBP2 (Nuclear Cap Binding Protein 2) (UniProt P52298)
T1 sequence: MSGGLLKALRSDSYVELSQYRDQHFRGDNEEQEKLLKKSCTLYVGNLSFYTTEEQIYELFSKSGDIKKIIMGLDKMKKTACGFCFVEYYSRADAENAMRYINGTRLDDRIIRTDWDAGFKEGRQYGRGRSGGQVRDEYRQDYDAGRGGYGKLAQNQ

[2] = molecular target: LAP-tagged NCBP1 (Nuclear Cap Binding Protein 1) (UniProt Q09161)
[3] = molecular target: T2, LAP-tagged NCBP3 (C17orf85) (UniProt Q53F19)
T2 sequence: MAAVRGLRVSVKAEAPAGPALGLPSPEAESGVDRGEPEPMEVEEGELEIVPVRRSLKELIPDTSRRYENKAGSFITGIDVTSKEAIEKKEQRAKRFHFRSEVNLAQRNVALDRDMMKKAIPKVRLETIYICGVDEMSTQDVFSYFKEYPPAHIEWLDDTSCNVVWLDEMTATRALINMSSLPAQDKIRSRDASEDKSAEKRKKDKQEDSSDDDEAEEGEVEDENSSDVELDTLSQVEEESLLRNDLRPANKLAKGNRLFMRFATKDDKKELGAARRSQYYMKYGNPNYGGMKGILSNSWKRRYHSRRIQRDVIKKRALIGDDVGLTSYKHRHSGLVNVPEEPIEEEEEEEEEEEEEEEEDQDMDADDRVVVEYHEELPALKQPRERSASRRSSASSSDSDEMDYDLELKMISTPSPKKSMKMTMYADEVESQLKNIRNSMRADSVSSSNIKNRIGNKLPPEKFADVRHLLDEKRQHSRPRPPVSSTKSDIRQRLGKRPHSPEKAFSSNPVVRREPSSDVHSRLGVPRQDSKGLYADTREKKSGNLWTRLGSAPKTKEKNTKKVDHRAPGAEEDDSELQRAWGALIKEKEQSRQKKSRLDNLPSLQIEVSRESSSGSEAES

[4] = molecular target: T3, LAP-tagged NCBP1 (Nuclear Cap Binding Protein 1), Q09161; settings: remark: other sources report otherwise
T3 chain: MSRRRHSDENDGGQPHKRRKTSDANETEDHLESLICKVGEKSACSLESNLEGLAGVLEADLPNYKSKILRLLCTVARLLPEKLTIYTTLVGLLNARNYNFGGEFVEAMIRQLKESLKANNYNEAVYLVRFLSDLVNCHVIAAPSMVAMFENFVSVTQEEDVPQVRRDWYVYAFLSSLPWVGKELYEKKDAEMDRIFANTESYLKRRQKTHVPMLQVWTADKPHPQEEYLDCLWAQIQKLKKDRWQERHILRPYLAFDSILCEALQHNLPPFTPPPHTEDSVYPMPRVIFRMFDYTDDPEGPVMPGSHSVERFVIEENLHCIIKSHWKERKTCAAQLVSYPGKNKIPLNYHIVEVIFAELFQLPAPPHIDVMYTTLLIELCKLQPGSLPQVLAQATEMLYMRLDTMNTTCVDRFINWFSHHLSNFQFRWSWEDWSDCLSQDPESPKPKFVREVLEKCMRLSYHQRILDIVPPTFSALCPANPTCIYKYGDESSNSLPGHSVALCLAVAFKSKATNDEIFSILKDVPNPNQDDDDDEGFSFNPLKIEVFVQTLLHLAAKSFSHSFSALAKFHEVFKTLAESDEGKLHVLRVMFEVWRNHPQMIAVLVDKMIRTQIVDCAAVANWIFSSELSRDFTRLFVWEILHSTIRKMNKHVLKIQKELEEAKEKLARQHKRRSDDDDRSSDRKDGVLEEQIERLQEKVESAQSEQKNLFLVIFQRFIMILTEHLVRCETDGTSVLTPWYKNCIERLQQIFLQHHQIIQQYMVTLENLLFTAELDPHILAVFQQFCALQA

[5] = molecular target: T4, LAP-tagged NCBP2 (Nuclear Cap Binding Protein 2), P52298; settings: remark: other sources report otherwise
T4 chain: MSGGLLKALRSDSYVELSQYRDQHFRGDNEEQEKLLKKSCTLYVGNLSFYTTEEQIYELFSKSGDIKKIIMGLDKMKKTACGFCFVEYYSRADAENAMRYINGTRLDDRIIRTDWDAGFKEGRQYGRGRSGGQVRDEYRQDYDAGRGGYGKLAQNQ

Nuclear Cap Binding Protein 1 (NCBP1), endogenous (from UniProt Q09161 1-790)
binding [1]: binds

PHAX, endogenous (from UniProt Q9H814 1-394)
binding [2]: binds
binding [1]: binds
binding [3]: no binding

ZCCHC8, endogenous (from UniProt Q6NZY4 1-707)
binding [2]: binds
binding [1]: binds
binding [3]: no binding

B1: ARS2, endogenous (protein, UniProt Q9BXP5 1-876)
chain: MGDSDDEYDRRRRDKFRRERSDYDRSRERDERRRGDDWNDREWDRGRERRSRGEYRDYDRNRRERFSPPRHELSPPQKRMRRDWDEHSSDPYHSGYEMPYAGGGGGPTYGPPQPWGHPDVHIMQHHVLPIQARLGSIAEIDLGVPPPVMKTFKEFLLSLDDSVDETEAVKRYNDYKLDFRRQQMQDFFLAHKDEEWFRSKYHPDEVGKRRQEARGALQNRLRVFLSLMETGWFDNLLLDIDKADAIVKMLDAAVIKMEGGTENDLRILEQEEEEEQAGKPGEPSKKEEGRAGAGLGDGERKTNDKDEKKEDGKQAENDSSNDDKTKKSEGDGDKEEKKEDSEKEAKKSSKKRNRKHSGDDSFDEGSVSESESESESGQAEEEKEEAEEALKEKEKPKEEEWEKPKDAAGLECKPRPLHKTCSLFMRNIAPNISRAEIISLCKRYPGFMRVALSEPQPERRFFRRGWVTFDRSVNIKEICWNLQNIRLRECELSPGVNRDLTRRVRNINGITQHKQIVRNDIKLAAKLIHTLDDRTQLWASEPGTPPLPTSLPSQNPILKNITDYLIEEVSAEEEELLGSSGGAPPEEPPKEGNPAEINVERDEKLIKVLDKLLLYLRIVHSLDYYNTCEYPNEDEMPNRCGIIHVRGPMPPNRISHGEVLEWQKTFEEKLTPLLSVRESLSEEEAQKMGRKDPEQEVEKFVTSNTQELGKDKWLCPLSGKKFKGPEFVRKHIFNKHAEKIEEVKKEVAFFNNFLTDAKRPALPEIKPAQPPGPAQILPPGLTPGLPYPHQTPQGLMPYGQPRPPILGYGAGAVRPAVPTGGPPYPHAPYGAGRGNYDAFRGQGGYPGKPRNRMVRGDPRAIVEYRDLDAPDDVDFF
binding [2]: binds
binding [1]: binds

B2: ZC3H18, endogenous, Q86VM9 1-953 (protein)
chain: MDVAESPERDPHSPEDEEQPQGLSDDDILRDSGSDQDLDGAGVRASDLEDEESAARGPSQEEEDNHSDEEDRASEPKSQDQDSEVNELSRGPTSSPCEEEGDEGEEDRTSDLRDEASSVTRELDEHELDYDEEVPEEPAPAVQEDEAEKAGAEDDEEKGEGTPREEGKAGVQSVGEKESLEAAKEKKKEDDDGEIDDGEIDDDDLEEGEVKDPSDRKVRPRPTCRFFMKGNCTWGMNCRFIHPGVNDKGNYSLITKADPFPPNGAPPLGPHPLMPANPWGGPVVDEILPPPPPEPPTESAWERGLRHAKEVLKKATIRKEQEPDFEEKRFTVTIGEDEREFDKENEVFRDWNSRIPRDVRDTVLEPYADPYYDYEIERFWRGGQYENFRVQYTETEPYHNYRERERERERENRQRERERERERDRERERRQRERERERERERDKERQRRKEEWERERAKRDEKDRQHRDRDREKEREKEKGKPKPRSPQPPSRQAEPPKKEAATTGPQVKRADEWKDPWRRSKSPKKKLGVSVSPSRARRRRKTSASSASASNSSRSSSRSSSYSGSGSSRSRSRSSSYSSYSSRSSRHSSFSGSRSRSRSFSSSPSPSPTPSPHRPSIRTKGEPAPPPGKAGEKSVKKPAPPPAPPQATKTTAPVPEPTKPGDPREARRKERPARTPPRRRTLSGSGSGSGSSYSGSSSRSRSLSVSSVSSVSSATSSSSSAHSVDSEDMYADLASPVSSASSRSPAPAQTRKEKGKSKKEDGVKEEKRKRDSSTQPPKSAKPPAGGKSSQQPSTPQQAPPGQPQQGTFVAHKEIKLTLLNKAADKGSRKRYEPSDKDRQSPPPAKRPNTSPDRGSRDRKSGGRLGSPKPERQRGQNSKAPAAPADRKRQLSPQSKSSSKVTSVPGKASDPGAASTKSGKASTLSRREELLKQLKAVEDAIARKRAKIPGKA
binding [4]: binds
binding [5]: binds

B3: RNPS1, endogenous (protein, UniProt Q15287 1-305)
chain: MDLSGVKKKSLLGVKENNKKSSTRAPSPTKRKDRSDEKSKDRSKDKGATKESSEKDRGRDKTRKRRSASSGSSSTRSRSSSTSSSGSSTSTGSSSGSSSSSASSRSGSSSTSRSSSSSSSSGSPSPSRRRHDNRRRSRSKSKPPKRDEKERKRRSPSPKPTKVHIGRLTRNVTKDHIMEIFSTYGKIKMIDMPVERMHPHLSKGYAYVEFENPDEAEKALKHMDGGQIDGQEITATAVLAPWPRPPPRRFSPPRRMLPPPPMWRRSPPRMRRRSRSPRRRSPVRRRSRSPGRRRHRSRSSSNSSR
binding [3]: binds

B4: ZC3H18, endogenous (protein, UniProt Q86VM9 1-953)
chain: MDVAESPERDPHSPEDEEQPQGLSDDDILRDSGSDQDLDGAGVRASDLEDEESAARGPSQEEEDNHSDEEDRASEPKSQDQDSEVNELSRGPTSSPCEEEGDEGEEDRTSDLRDEASSVTRELDEHELDYDEEVPEEPAPAVQEDEAEKAGAEDDEEKGEGTPREEGKAGVQSVGEKESLEAAKEKKKEDDDGEIDDGEIDDDDLEEGEVKDPSDRKVRPRPTCRFFMKGNCTWGMNCRFIHPGVNDKGNYSLITKADPFPPNGAPPLGPHPLMPANPWGGPVVDEILPPPPPEPPTESAWERGLRHAKEVLKKATIRKEQEPDFEEKRFTVTIGEDEREFDKENEVFRDWNSRIPRDVRDTVLEPYADPYYDYEIERFWRGGQYENFRVQYTETEPYHNYRERERERERENRQRERERERERDRERERRQRERERERERERDKERQRRKEEWERERAKRDEKDRQHRDRDREKEREKEKGKPKPRSPQPPSRQAEPPKKEAATTGPQVKRADEWKDPWRRSKSPKKKLGVSVSPSRARRRRKTSASSASASNSSRSSSRSSSYSGSGSSRSRSRSSSYSSYSSRSSRHSSFSGSRSRSRSFSSSPSPSPTPSPHRPSIRTKGEPAPPPGKAGEKSVKKPAPPPAPPQATKTTAPVPEPTKPGDPREARRKERPARTPPRRRTLSGSGSGSGSSYSGSSSRSRSLSVSSVSSVSSATSSSSSAHSVDSEDMYADLASPVSSASSRSPAPAQTRKEKGKSKKEDGVKEEKRKRDSSTQPPKSAKPPAGGKSSQQPSTPQQAPPGQPQQGTFVAHKEIKLTLLNKAADKGSRKRYEPSDKDRQSPPPAKRPNTSPDRGSRDRKSGGRLGSPKPERQRGQNSKAPAAPADRKRQLSPQSKSSSKVTSVPGKASDPGAASTKSGKASTLSRREELLKQLKAVEDAIARKRAKIPGKA
binding [3]: no binding
